# Data published in PubChem BioAssay AID602313 (National Center for Advancing Translational Sciences (NCATS), 2012).
# Among all 390,000 compounds or so, about 760 (0.19%) were called active. Inconclusive results, whose numbers are uncertain, are shown with a selection of clear calls. Calls follow the shape of the dose curve; as a rule, active = well fitted inhibition curve with a large enough effect; inconclusive = small, poorly fitted or top-dose-only effect; inactive = flat fitted curve, though single readings scatter. Potencies of inconclusive entries are doubtful fits and often do not repeat.
# Test: qHTS for Inhibitors of Vif-A3F Interactions: qHTS; also: nearly all actives have a fitted effect of over 65% in size
# Conditions: HeLa A3F-eYFP + Vif (tagged APOBEC3F with the HIV-1 protein that degrades it), YFP fluorescence increase; series mostly up to 46.1 µM
# Procedure, shortened: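 Fluorescence increase (Ex 488/Em 500-530) after overnight compound treatment at 37 deg C flags inhibition of Vif-driven A3F-eYFP loss in stable HeLa A3F-eYFP/Vif cells seeded overnight beforehand.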
# Potency is read from the fitted curve at half-maximal effect.
row,Compound,Potency
1,O=C(Nc1ccc2c(c1)OCO2)c1cccn(Cc2ccc(F)cc2)c1=O,inactive
2,Cc1ccc(/C=C2/C(=O)NC(=O)N(CC3CCCO3)C2=O)s1 (stereo not given),inactive
3,Nc1ccc(Br)cc1C(=O)c1ccccc1,"inconclusive: 3.16 µM [inhibitor, full curve, poor fit]"
4,CC1=CC(=Cc2sc3ccccc3[n+]2C)C=C(C)O1,active: 5.01 µM
5,C/C(=N\NC(=O)c1ccccc1O)c1c(O)n(Cc2ccccc2)c(=O)[nH]c1=O,"inconclusive: 25.1 µM [inhibitor, single point]"
6,COc1cc2c3c(c1OC)Oc1ccc(cc1)C[C@H]1c4c(cc(OC)c(OC)c4Oc4ccc(cc4)C[C@@H]3N(C)CC2)CCN1C,"inconclusive: 35.5 µM [inhibitor, single point]"
7,COc1c(C)cc(C(=O)C2CCCN(Cc3cccc(C)n3)C2)cc1C (stereo not given),"inconclusive: 5.62 µM [inhibitor, single point]"
8,CC1(C)OC(c2ccccc2)=C/C(=C/C=C2C(=O)NC(=O)NC2=O)O1,"inconclusive: 6.31 µM [inhibitor, single point]"
9,NN=C1C(Cl)=C(Cl)C(Cl)=C1Cl,"inconclusive: 5.62 µM [inhibitor, single point]"
10,CC(C)c1cccc(O)c(=O)c1,"inconclusive: 31.6 µM [inhibitor, single point]"
11,CN1C(=O)C(=Cc2sc(=O)n(-c3ccccc3)c2N2CCCCC2)C(=O)N(C)C1=O,"inconclusive: 35.5 µM [inhibitor, single point]"
12,O=C1NC(=O)N(Cc2ccccc2)C(=O)/C1=C/N1CCCc2ccccc21,"inconclusive: 28.2 µM [inhibitor, single point]"
13,Cn1cc(C=C(C#N)C#N)c2ccccc21,"inconclusive: 35.5 µM [inhibitor, single point]"
14,Cc1cc2c(cc1C)NP(=S)(c1ccccc1)N2,"inconclusive: 35.5 µM [inhibitor, single point]"
15,CC(C)(O)[C@H]1O[C@H]2CC[C@@]3(C)[C@@](O)(CC[C@H]4Cc5c([nH]c6ccccc56)[C@@]43C)C2=CC1=O,"inconclusive: 31.6 µM [inhibitor, single point]"
16,CC(C)C(=O)NC(Oc1ccccc1Cl)C(Cl)(Cl)Cl (stereo not given),inactive
17,COCCCn1c(=O)/c(=C\c2ccccc2OC(F)F)s/c1=C(/C#N)C(=O)NCCOC,active: 25.1 µM
18,CCCCCSc1cc(O)c(C(CNC)C(C)C)cc1OC (stereo not given),inactive
19,O=c1[nH]c(O)c(/C=C2\C=NN=C2c2ccccc2)c(=O)[nH]1,inactive
20,Cc1ccc(NC(=O)N2CC2)cc1NC(=O)N1CC1,"inconclusive: 8.91 µM [inhibitor, partial curve, poor fit]"

# Taken from above.
# Potency with O=C1NC(=O)N(Cc2ccccc2)C(=O)/C1=C/N1CCCc2ccccc21 reads inconclusive: 28.2 µM [inhibitor, single point]
# Potency with CC(C)C(=O)NC(Oc1ccccc1Cl)C(Cl)(Cl)Cl (stereo not given) reads inactive
